The campaign covered roughly 400,000 compounds. About 13,000 (3.2%) were called active. The shares of active, inactive and inconclusive entries below differ from those in the screen. Calls come from the whole dose curve; as a rule, active = well fitted cell-killing curve with a large enough effect; inconclusive = small, poorly fitted or top-dose-only effect, or effect the other way; inactive = flat fitted curve, though single readings scatter. Where the call is inconclusive, the potency comes from a doubtful curve fit.
Experiment: qHTS assay for MDR1-selective chemotherapeutics: Primary screen using the drug-selected MDR subline cells KB-V1; note: nearly all actives have a fitted effect of over 60% in size
Conditions: KB-V1 MDR cells viability, CellTiter-Glo, 72 h; activity change, negative = cytotoxicity: at 46.1 µM (top of the series)
How it was run: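 Potencies derive from concentration-effect curves fitted to normalized luminescence (CellTiter-Glo) of KB-V1 cells treated for 72 h at 37 degrees C in phenol-red-free DMEM containing 10% FBS.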
% is set by controls: 0 for no effect and ±100 for the full control effect; potency is the fitted concentration of half-maximal effect.

| SMILES | Potency | activity change, negative = cytotoxicity |
| --- | --- | --- |
| N/C(=N\OC(=O)Cc1ccccc1[N+](=O)[O-])c1ccncc1 | inconclusive: 13 µM [cytotoxic, partial curve, poor fit] | – |
| O=C(Nc1nc(-c2ccc3c(c2)OCO3)cs1)c1ccncc1 | active: 2.59 µM | – |
| Cc1ccccc1CS(=O)(=O)c1ccc(C(=O)N2CCOCC2)cc1[N+](=O)[O-] | inconclusive: 23.1 µM [cytotoxic, single point] | – |
| Cc1onc(-c2ccccc2Cl)c1C(=O)N1CCN(c2ccc(F)cc2)CC1 | inconclusive: 16.4 µM [cytotoxic, single point] | – |
| CNC(=O)COc1coc(CN2CCN(c3ccccc3F)CC2)cc1=O | – | inactive: -1.07% |
| CCO[C@H]1OC(C(=O)N2CCOCC2)=C[C@@H](c2cn(C(C)=O)c3ccccc23)[C@@H]1CCCO | – | inactive: -0.594% |
| CSc1ccc(NC(=O)Nc2cccn(Cc3ccccc3F)c2=O)cc1 | – | inactive: -6.71% |
| FC(F)(F)c1cccc(CN2CCN(c3ncccn3)CC2)c1 | – | inactive: -16.9% |
| COc1ccc(-c2csc(-c3cccnc3)n2)cc1C | inconclusive: 16.4 µM [cytotoxic, single point] | – |
| Cc1cc(S(=O)(=O)Nc2ccc3ccccc3c2)c(C)s1 | active: 3.26 µM | – |
| CCCn1nnc(NC(=O)c2ccc3ccccc3c2)n1 | inconclusive: 10.3 µM [cytotoxic, partial curve] | – |
| O=C(c1ccccc1)N1CCN(CC(O)COc2cccc3ccccc23)CC1 (configuration not stated) | inconclusive: 6.51 µM [cytotoxic, partial curve, poor fit] | – |
| COc1cc(SC)ccc1C(=O)N1CCN(Cc2ccc3c(c2)OCO3)CC1 | inconclusive: 16.4 µM [cytotoxic, single point] | – |
| O=C1CC(c2ccccc2)Sc2ccccc2N1Cc1ccccc1F (configuration not stated) | inconclusive: 14.6 µM [cytotoxic, single point] | – |
| CC1=NNC(=O)/C1=C\c1cn(-c2ccccc2)nc1-c1ccc(Cl)cc1 | active: 16.4 µM | – |
| COCCn1c(N)c(N(Cc2ccccc2)C(=O)COc2ccccc2F)c(=O)[nH]c1=O | – | inactive: -7.13% |
| Cc1ccc(/C=N/NC(=O)CN(Cc2ccccc2)S(=O)(=O)c2ccc3c(c2)OCCO3)cc1 | active: 5.8 µM | – |
| COc1ccc(CNC(=O)CCC2N=C3c4ccccc4N=C(SCC(=O)NCCc4ccc(OC)c(OC)c4)N3C2=O)cc1 (configuration not stated) | inconclusive: 13 µM [rising, partial curve] | – |
| N=c1ccn(Cc2ccccc2Cl)cc1 | inconclusive: 29.1 µM [rising, single point] | – |

2 compounds drawn at random from those above, as already listed:

| SMILES | Potency | activity change, negative = cytotoxicity |
| --- | --- | --- |
| COc1ccc(-c2csc(-c3cccnc3)n2)cc1C | inconclusive: 16.4 µM [cytotoxic, single point] | – |
| O=C(c1ccccc1)N1CCN(CC(O)COc2cccc3ccccc23)CC1 (configuration not stated) | inconclusive: 6.51 µM [cytotoxic, partial curve, poor fit] | – |

Carrying on.

| SMILES | Potency | activity change, negative = cytotoxicity |
| --- | --- | --- |
| Cc1c(Nc2ncnc3nc[nH]c23)c(=O)n(-c2ccccc2)n1C | inconclusive: 16.4 µM [rising, partial curve, poor fit] | – |
| COc1ccc(-n2c(SCC(=O)O)nnc2-c2ccc(NC(=O)c3ccccc3)cc2)cc1 | – | inactive: 14.1% |
| CCc1ccc([C@@H]2CC=C(C(=O)O)CN2S(=O)(=O)c2ccc(C)cc2)cc1 | inconclusive: 5.8 µM [rising, full curve] | – |
| CCN(CC)c1ccc(/C=C(\C#N)c2ccccn2)cc1 | inconclusive: 11.6 µM [cytotoxic, partial curve] | – |
| Cc1ccc(CS(=O)(=O)Cc2ccc(C(=O)NCc3ccco3)o2)cc1 | inconclusive: 20.6 µM [cytotoxic, partial curve] | – |
| CCOC(=O)N1CCN(C(=O)CSc2ncnc3sccc23)CC1 | inconclusive: 29.1 µM [cytotoxic, single point] | – |
| Cc1cc(N2CCOCC2)n2nc(C)c(-c3ccccc3)c2n1 | inconclusive: 25.9 µM [cytotoxic, partial curve, poor fit] | – |
| CCCCn1c(=O)[nH]c(=O)c2c1nc(-c1cc(Br)ccc1OC)n2C | inconclusive: 23.1 µM [cytotoxic, partial curve, poor fit] | – |
| Cc1sc2nc(COC(=O)c3ccc(Cl)c(N)c3)[nH]c(=O)c2c1C | – | inactive: -2.11% |
| CN(C)c1ccc(C(C(=O)NCc2ccccc2)N(Cc2cccnc2)C(=O)c2snc(C(N)=O)c2N)cc1 (configuration not stated) | – | inactive: -6.77% |
| Cc1c(S(=O)(=O)N2CCOCC2)c(=O)n(C)c(=O)n1C | – | inactive: 29.7% |
| Cc1cc(C)n2nc(SCc3nnc(-c4ccccc4Br)o3)nc2n1 | active: 13 µM | – |
| COc1ccc(-c2[nH]c(-c3ccc(Cl)cc3)nc2SCC(=O)Nc2nccs2)cc1 | inconclusive: 29.1 µM [cytotoxic, single point] | – |
| C[C@H](CO)N1C[C@H](C)[C@@H](CN(C)C(=O)c2cccnc2)Oc2ncc(Br)cc2C1=O | – | inactive: -9.03% |
| CCN(CC(=O)Nc1cccc(OC)c1)CC(=O)Nc1ccc(C)cc1Cl | inconclusive: 6.51 µM [cytotoxic, partial curve] | – |
| Cc1ccccc1NC(=O)c1cc(C(=O)c2cc(Cl)ccc2O)cn(-c2ccccc2C)c1=O | active: 9.2 µM | – |
| Cc1[nH]n(C(N)=S)c(=O)c1N=Nc1cc(C(F)(F)F)ccc1Cl | inconclusive: 23.1 µM [cytotoxic, single point] | – |
| O=C(Nc1nnc(-c2ccccc2)o1)C1CCCN1S(=O)(=O)c1cccs1 (configuration not stated) | – | inactive: -20.1% |

From PubChem BioAssay AID1347076 (National Center for Advancing Translational Sciences (NCATS), 2019)
